Results are given in words; binding and its absence hold for the method and conditions named. In cells and extracts the contact can be indirect. Some binding calls cover weakened binding; strength is not graded here.
Biological target: Human TLE3 (a homolog of Groucho2) (human) (UniProt Q04726)
Assay: co-immunoprecipitation of tagged proteins

Sequences of proteins named here, by UniProt entry; tags and fusion partners are left off.
UniProt Q04726: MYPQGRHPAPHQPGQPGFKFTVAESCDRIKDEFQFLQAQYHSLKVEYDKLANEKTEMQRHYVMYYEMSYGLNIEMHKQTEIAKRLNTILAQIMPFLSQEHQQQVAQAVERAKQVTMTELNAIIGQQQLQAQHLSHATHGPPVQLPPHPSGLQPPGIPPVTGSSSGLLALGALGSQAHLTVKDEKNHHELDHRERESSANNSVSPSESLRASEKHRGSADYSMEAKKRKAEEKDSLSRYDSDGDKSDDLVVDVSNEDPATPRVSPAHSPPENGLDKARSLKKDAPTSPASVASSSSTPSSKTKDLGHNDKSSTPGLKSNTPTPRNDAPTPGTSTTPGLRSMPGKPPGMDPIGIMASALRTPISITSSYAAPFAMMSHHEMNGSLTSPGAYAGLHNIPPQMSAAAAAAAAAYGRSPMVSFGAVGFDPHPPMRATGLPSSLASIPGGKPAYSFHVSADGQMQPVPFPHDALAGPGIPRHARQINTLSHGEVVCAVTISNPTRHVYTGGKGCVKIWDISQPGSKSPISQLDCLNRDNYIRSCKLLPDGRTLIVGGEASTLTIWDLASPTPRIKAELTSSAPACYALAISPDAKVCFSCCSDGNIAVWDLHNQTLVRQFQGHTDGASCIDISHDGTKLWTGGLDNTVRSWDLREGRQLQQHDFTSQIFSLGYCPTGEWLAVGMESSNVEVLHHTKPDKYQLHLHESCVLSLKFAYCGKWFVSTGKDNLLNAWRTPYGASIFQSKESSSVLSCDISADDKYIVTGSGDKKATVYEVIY
UniProt Q9UJU2: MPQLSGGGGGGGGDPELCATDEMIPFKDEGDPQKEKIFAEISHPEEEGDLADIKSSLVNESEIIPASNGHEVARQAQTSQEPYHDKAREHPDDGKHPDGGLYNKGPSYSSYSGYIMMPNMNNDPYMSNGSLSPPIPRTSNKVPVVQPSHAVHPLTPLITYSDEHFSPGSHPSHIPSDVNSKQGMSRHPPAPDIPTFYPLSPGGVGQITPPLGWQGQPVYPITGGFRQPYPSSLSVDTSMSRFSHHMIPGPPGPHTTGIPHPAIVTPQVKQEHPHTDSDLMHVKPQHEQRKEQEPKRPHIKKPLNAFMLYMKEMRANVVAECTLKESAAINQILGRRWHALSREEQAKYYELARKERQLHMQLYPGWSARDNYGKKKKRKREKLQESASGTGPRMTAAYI

For Human LEF1 (from UniProt Q9UJU2 1-399), the binding was “binds”.
